PubChem BioAssay AID1259254 | NCATS, 2017
The whole screen tested about 59,000 reagents; shown is a random part of them. About 1,550 of them (2.6%) were called active. 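G2 share is only a proxy for re-replication; each gene was hit by three separate siRNAs, and active genes were retested.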 The raw values are shown without normalisation. The numbers tell different reagents against one gene apart. Reagent sequences are not shown. The record does not give: the amount of reagent.

Screen: 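Finding genes that stop cells copying their DNA twice in one cycle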 (primary screen)
System: human HCT116 colorectal cancer cells
Reagents: single siRNA against human genes
Time to read-out: 3 days
Read-out: 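Nuclei stained with Hoechst and imaged; cell-cycle phase assigned by DNA content; G2 share scaled per plate, non-targeting siRNA 0%, GMNN siRNA 100%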
Direction: G2 robust z-score and G2 cells, % of GMNN control: higher = more G2 cells, more excess DNA replication; raw share of cells in G2: higher = larger share of cells with G2 DNA content
Hit rule: 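An siRNA counts as active if its G2 robust z-score lies at least 5 MADs above the screen median; here such calls match roughly 38% of GMNN control or more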

G2 robust z-score	G2 cells, % of GMNN control	raw share of cells in G2 (%)	outcome	Gene	siRNA no.
-1.37	-6.65	2.79	inactive	RNF112 (ring finger protein 112)	1
5.54	42	18.3	active	RNF112 (ring finger protein 112)	2
4.59	35.3	17.4	inactive	RNF112 (ring finger protein 112)	3
-1.03	-4.27	3.21	inactive	SEMA6D (semaphorin 6D)	1
3.68	28.8	14.6	inactive	SEMA6D (semaphorin 6D)	2
1.21	11.5	10.2	inactive	SEMA6D (semaphorin 6D)	3
-0.927	-3.56	3.95	inactive	NETO2 (neuropilin and tolloid like 2)	1
-1.13	-4.97	2.4	inactive	NETO2 (neuropilin and tolloid like 2)	2
-1.14	-5.08	2.91	inactive	NETO2 (neuropilin and tolloid like 2)	3
-0.637	-1.51	4.15	inactive	NSUN5P2 (NSUN5 pseudogene 2)	1
1.37	12.6	12	inactive	NSUN5P2 (NSUN5 pseudogene 2)	2
-0.847	-2.99	3.44	inactive	NSUN5P2 (NSUN5 pseudogene 2)	3
-0.435	-0.0954	5.91	inactive	TXNDC12 (thioredoxin domain containing 12)	1
1.1	10.7	7.9	inactive	TXNDC12 (thioredoxin domain containing 12)	2
-0.432	-0.0736	4.22	inactive	TXNDC12 (thioredoxin domain containing 12)	3
-1.1	-4.76	1.63	inactive	BICD2 (BICD cargo adaptor 2)	1
1.25	11.8	8.83	inactive	BICD2 (BICD cargo adaptor 2)	2
-0.245	1.25	4.48	inactive	BICD2 (BICD cargo adaptor 2)	3
-0.93	-3.58	4.14	inactive	CELF2 (CUGBP Elav-like family member 2)	1
0.0132	3.06	7.68	inactive	CELF2 (CUGBP Elav-like family member 2)	2
1.56	13.9	8.34	inactive	CELF2 (CUGBP Elav-like family member 2)	3
-0.62	-1.4	2.3	inactive	MRTFB (myocardin related transcription factor B)	1
0.176	4.2	7.81	inactive	MRTFB (myocardin related transcription factor B)	2
2.7	22	10.5	inactive	MRTFB (myocardin related transcription factor B)	3
-0.224	1.39	6.62	inactive	NSUN6 (NOP2/Sun RNA methyltransferase 6)	1
1.22	11.6	8.93	inactive	NSUN6 (NOP2/Sun RNA methyltransferase 6)	2
-0.877	-3.2	3.36	inactive	NSUN6 (NOP2/Sun RNA methyltransferase 6)	3
-1.12	-4.88	2.44	inactive	PRSS27 (serine protease 27)	1
-0.388	0.241	5.7	inactive	PRSS27 (serine protease 27)	2
-1.2	-5.51	2.66	inactive	PRSS27 (serine protease 27)	3
-0.969	-3.85	2.54	inactive	ETFRF1 (electron transfer flavoprotein regulatory factor 1)	1
3.69	28.9	11.8	inactive	ETFRF1 (electron transfer flavoprotein regulatory factor 1)	2
-0.361	0.431	3.22	inactive	ETFRF1 (electron transfer flavoprotein regulatory factor 1)	3
0.546	6.81	7.27	inactive	TMC5 (transmembrane channel like 5)	1
-0.701	-1.97	3.44	inactive	TMC5 (transmembrane channel like 5)	2
-0.109	2.2	2.98	inactive	TMC5 (transmembrane channel like 5)	3
-1.13	-4.95	3.71	inactive	LSR (lipolysis stimulated lipoprotein receptor)	1
-0.422	-0.00334	4.24	inactive	LSR (lipolysis stimulated lipoprotein receptor)	2
-0.0462	2.64	4.81	inactive	LSR (lipolysis stimulated lipoprotein receptor)	3

An excerpt from above, reduced to “G2 cells, % of GMNN control”.
ETFRF1 (electron transfer flavoprotein regulatory factor 1) #1 = -3.85
ETFRF1 (electron transfer flavoprotein regulatory factor 1) #2 = 28.9
ETFRF1 (electron transfer flavoprotein regulatory factor 1) #3 = 0.431
TMC5 (transmembrane channel like 5) #1 = 6.81
TMC5 (transmembrane channel like 5) #2 = -1.97
TMC5 (transmembrane channel like 5) #3 = 2.2
LSR (lipolysis stimulated lipoprotein receptor) #1 = -4.95

Further entries follow:
G2 robust z-score	G2 cells, % of GMNN control	raw share of cells in G2 (%)	outcome	Gene	siRNA no.
-0.126	2.08	2.95	inactive	MAB21L4 (mab-21 like 4)	1
1.56	14	10.2	inactive	MAB21L4 (mab-21 like 4)	2
-0.454	-0.228	4.2	inactive	MAB21L4 (mab-21 like 4)	3
0.577	7.03	8.6	inactive	CENPF (centromere protein F)	1
-0.681	-1.82	3.42	inactive	CENPF (centromere protein F)	2
-0.0444	2.65	4.56	inactive	CENPF (centromere protein F)	3
1.35	12.5	10.3	inactive	GPR139 (G protein-coupled receptor 139)	1
4.35	33.6	16.3	inactive	GPR139 (G protein-coupled receptor 139)	2
0.567	6.96	5.4	inactive	GPR139 (G protein-coupled receptor 139)	3
2.86	23.1	13.1	inactive	OR12D2 (olfactory receptor family 12 subfamily D member 2)	1
-0.257	1.16	4.44	inactive	OR12D2 (olfactory receptor family 12 subfamily D member 2)	2
1.49	13.5	8	inactive	OR12D2 (olfactory receptor family 12 subfamily D member 2)	3
1.47	13.3	9.73	inactive	SLK (STE20 like kinase)	1
-0.915	-3.47	3.93	inactive	SLK (STE20 like kinase)	2
-0.368	0.378	3.8	inactive	SLK (STE20 like kinase)	3
-0.297	0.878	5.71	inactive	CRYBA4 (crystallin beta A4)	1
-0.7	-1.96	3.37	inactive	CRYBA4 (crystallin beta A4)	2
-0.464	-0.294	3.41	inactive	CRYBA4 (crystallin beta A4)	3
5.02	38.3	21.3	active	PSG5 (pregnancy specific beta-1-glycoprotein 5)	1
0.773	8.4	7.54	inactive	PSG5 (pregnancy specific beta-1-glycoprotein 5)	2
0.247	4.7	5.05	inactive	PSG5 (pregnancy specific beta-1-glycoprotein 5)	3
-0.892	-3.31	3.66	inactive	SYNGR2 (synaptogyrin 2)	1
3.08	24.7	13.7	inactive	SYNGR2 (synaptogyrin 2)	2
-0.828	-2.86	2.34	inactive	SYNGR2 (synaptogyrin 2)	3
-0.209	1.5	2.26	inactive	GOLM2 (golgi membrane protein 2)	1
-0.351	0.5	4.29	inactive	GOLM2 (golgi membrane protein 2)	2
-0.306	0.813	3.57	inactive	GOLM2 (golgi membrane protein 2)	3
-0.827	-2.85	4.18	inactive	FBLN2 (fibulin 2)	1
1.57	14	8.64	inactive	FBLN2 (fibulin 2)	2
4.25	32.9	17.2	inactive	FBLN2 (fibulin 2)	3
